The values that follow come from paper PMC11741287.

Amino acid sequences for entries named in this document (tags omitted).
UniProt Q02156: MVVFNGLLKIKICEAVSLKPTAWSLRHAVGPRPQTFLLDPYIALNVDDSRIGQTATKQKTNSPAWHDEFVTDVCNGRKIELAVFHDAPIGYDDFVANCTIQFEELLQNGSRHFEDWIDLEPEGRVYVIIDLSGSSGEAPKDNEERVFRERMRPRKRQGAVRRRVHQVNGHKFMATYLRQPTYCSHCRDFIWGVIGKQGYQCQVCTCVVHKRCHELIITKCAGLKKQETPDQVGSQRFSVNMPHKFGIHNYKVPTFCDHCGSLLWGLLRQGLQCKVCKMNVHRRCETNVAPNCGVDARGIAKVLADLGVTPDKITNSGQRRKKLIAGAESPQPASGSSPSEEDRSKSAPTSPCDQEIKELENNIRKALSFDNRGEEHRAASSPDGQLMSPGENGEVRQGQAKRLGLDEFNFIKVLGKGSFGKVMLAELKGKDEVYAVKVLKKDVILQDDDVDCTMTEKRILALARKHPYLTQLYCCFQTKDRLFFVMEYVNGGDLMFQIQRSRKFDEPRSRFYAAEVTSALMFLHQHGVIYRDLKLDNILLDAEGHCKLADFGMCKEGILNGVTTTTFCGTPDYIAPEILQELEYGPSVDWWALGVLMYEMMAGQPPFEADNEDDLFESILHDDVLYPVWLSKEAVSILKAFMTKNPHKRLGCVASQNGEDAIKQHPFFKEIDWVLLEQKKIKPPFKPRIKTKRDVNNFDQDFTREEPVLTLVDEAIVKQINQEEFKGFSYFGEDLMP

The target in this experiment is Flag-PKCɛ (human) (UniProt Q02156). Nature of the experiment: affinity purification with mass spectrometry; agarose FLAG beads on lysates of transfected HEK293T cells (Opto-PKCɛ cells after five minutes of blue light); on-bead digestion, LC-MS/MS, label-free quantitation; untransfected HEK293T as negative control, proteins at least 10 times more abundant considered.

Results are given in words; binding and its absence hold for the method and conditions named. In cells and extracts the contact can be indirect. These calls come from enrichment with a bait or labelling near it, and not all partners need be listed.

B1: MARCKS (protein, UniProt P29966 1-332)
chain: MGAQFSKTAAKGEAAAERPGEAAVASSPSKANGQENGHVKVNGDASPAAAESGAKEELQANGSAPAADKEEPAAAGSGAASPSAAEKGEPAAAAAPEAGASPVEKEAPAEGEAAEPGSPTAAEGEAASAASSTSSPKAEDGATPSPSNETPKKKKKRFSFKKSFKLSGFSFKKNKKEAGEGGEAEAPAAEGGKDEAAGGAAAAAAEAGAASGEQAAAPGEEAAAGEEGAAGGDPQEAKPQEAAVAPEKPPASDETKAAEEPSKVEEKKAEEAGASAAACEAPSAAGPGAPPEQEAAPAEEPAAAAASSACAAPSQEAQPECSPEAPPAEAAE
Consider B1, for which the binding entry is “binds”.
